Values from PubChem BioAssay AID504784 (Drosophila RNAi Screening Center, 2011).
The screen tested about 17,000 reagents; this is an unselected part of those with a known target gene and a result. 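Each column is one replicate's B-score; the combined score over replicates was not deposited, so single values may mislead.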

- Screen: 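Genome-wide knock-down for genes giving too much or too little stored lipid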 (primary screen)
- Cell system: Drosophila Kc167 embryonic cells
- Reagent: long dsRNA against Drosophila genes, about 250 ng dsRNA per well
- Timing: 4 days
- Treatment: cells fed 400 µM oleic acid bound to BSA
- Detection: 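Microscope images give a droplet-to-nucleus area ratio, taken as log and converted to a screen-wide B-score; higher values mean greater lipid storage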
- Scale: droplet/nuclear area B-score: higher = more stored lipid (overstorage)

Target gene	dsRNA	droplet/nuclear area B-score, replicate 1	droplet/nuclear area B-score, replicate 2	droplet/nuclear area B-score, replicate 3
cav	DRSC15995	-0.0306	-3.13	
Pgd	DRSC18697	-1.79		
omd	DRSC16507	-6.23	-4.28	
CG34129	DRSC15960	-1.37	-1.66	
CG1344	DRSC04837	0.913	0.802	
CG1792	DRSC15290	-0.851	0.814	
Rad17	DRSC16811	1.06	4.36	
CG42539 (retired record)	DRSC21639	-0.254	0.0403	
CG14834	DRSC10204	-1.75	-1.38	
CG13457	DRSC10004	0.966	1.74	
CheA29a	DRSC21486	-0.0662	-1.04	
Det	DRSC14489	-0.253	-0.592	
CG32537	DRSC20073	-0.0113	0.412	
CG5439	DRSC02861	-0.0396	-0.00232	
CG32512	DRSC20519	-0.447	1.29	
CG32512	DRSC20551	-3.28	0.256	
CG32512	DRSC21401	-0.308	-1.41	
CG6800	DRSC16119	1.09	-0.205	
CG14646	DRSC12232	0.436	-1.19	-2.41
CG14646	DRSC21316	0.835	0.0679	
Adgf-C	DRSC16473	-1.05	0.674	
Or10a	DRSC20264	0.00562	-0.138	-0.229
Dek	DRSC07418	-1.37	0.0953	
spn-B	DRSC17063	0.583	0.279	
CG7601	DRSC14131	-2.05	6.41	
atms	DRSC12310	-2.78	-2.3	-0.0125
CG6220	DRSC06969	-0.115	0.695	
CG14627	DRSC18630	0.459	0.275	
Hsp26	DRSC11189	-0.582	0.432	
clt	DRSC04621	0.00885	0.868	
Cds	DRSC10938	-0.456	1.11	
Tgt	DRSC00672	3.68	0.669	
Gycbeta100B	DRSC14039	-0.264	0.723	
Gycbeta100B	DRSC14040	-0.48	-0.696	
Gycbeta100B	DRSC16691	-2.79	6.53	
Daao1	DRSC06131	-0.378	0.131	
ppk5	DRSC11492	1.23	-0.714	
CG13082	DRSC02186	0.875	1.26	
CG12836	DRSC06182	0.895	-1.66	
CG12204	DRSC19442	0.321	1.25	
Nna1	DRSC19404	0.687	1.44	0.801
Hsc70-2	DRSC16710	2.23	2.49	
mRpL46	DRSC08391	0.0424	3.62	
Gr22b	DRSC20911	-0.0292	-1.52	
prd	DRSC03597	0.45	0.95	
Rhp	DRSC20279	0.461	0.0912	
CG5089	DRSC06914	-2.34	1.95	
coil	DRSC07242	-1.24	0.163	
ProtB	DRSC03373	0.0699	0.256	
dpr14	DRSC17767	-0.916	0.0214	1.26
CG33966	DRSC08256	0.804	0.00621	
qkr58E-3	DRSC04711	-0.324	-1.28	
Pk34A	DRSC03398	-0.989	0.29	
Fbw5	DRSC03146	-2.28	0.534	
CG9114	DRSC20155	0.0725	-0.528	
CG5292	DRSC15763		0.1	

Reformatted: entries from further up
| Target gene | dsRNA | droplet/nuclear area B-score, replicate 1 | droplet/nuclear area B-score, replicate 2 | droplet/nuclear area B-score, replicate 3 |
| --- | --- | --- | --- | --- |
| CG5439 | DRSC02861 | -0.0396 | -0.00232 | – |
| CG32512 | DRSC20519 | -0.447 | 1.29 | – |
| CG32512 | DRSC20551 | -3.28 | 0.256 | – |
| CG32512 | DRSC21401 | -0.308 | -1.41 | – |
| CG6800 | DRSC16119 | 1.09 | -0.205 | – |
| CG14646 | DRSC12232 | 0.436 | -1.19 | -2.41 |
| CG14646 | DRSC21316 | 0.835 | 0.0679 | – |
